This is one part of the list. These are further read-outs of the screen, such as a control signal, another cell line or another target. No call is given for them. The list favours compounds with an active or inconclusive main result. Potencies come from curve fits of mixed quality, noted in brackets.
Assay: qHTS Assay for Lipid Storage Modulators in Drosophila S3 Cells;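 on cell number change: cells counted by Cell Tracker Red CMTPX staining in the red channel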
Conditions: BODIPY lipid droplet fluorescence, 18-24 h; for cell number change: measured here: cell count max response, cells fed with added oleic acid
Procedure, shortened: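 Drosophila S3 cells got compounds at several concentrations plus oleic acid (400 uM solution). Laser-scanning cytometry with 488 nm excitation read lipid droplets at 500-530 nm and cells at 575-640 nm. Percent activity was relative to 20 uM Triacsin C.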

[1] = measured here: cell number channel AC50, cells fed with added oleic acid
[2] = measured here: lipid fluorescence (Fed channel) AC50, cells fed with added oleic acid

Row | SMILES | cell number change | AC50 [1] | AC50 [2]
1 | COc1ccccc1C1=NNC(=NCc2ccccc2)SC1 | -42.2% | 0.00461 µM [falling, full curve] | –
2 | CCOC(=O)C1=C(C)NC(=O)NC1c1cc(C)sc1C (configuration not stated) | 118% | 18.4 µM [rising, single point] | 29.1 µM [rising, single point]
3 | CCOc1ccc(S(=O)(=O)N2CCC(C(=O)NCC3CCCO3)CC2)cc1C (configuration not stated) | -4.62% | – | –
4 | Cc1cc(C)c(C#N)c(SCc2ccc(C(=O)O)cc2)n1 | -17.5% | – | 6.51 µM [rising, single point]
5 | CCCCC[C@H]1CN(Cc2ccccc2)C(=O)[C@@H]1CC(=O)NCc1ccccc1 | -25.7% | – | –
6 | C1=C(CCNC2=NCCCCC2)CCCC1 | -42.1% | – | –
7 | COc1ccc(C(=O)NC(C)CCc2ccccc2)cc1[N+](=O)[O-] (configuration not stated) | 9.97% | – | 29.1 µM [falling, single point]
8 | Cc1ccc(O)c(NC(=O)C2CCCN2C(=O)OCc2ccccc2)c1 (configuration not stated) | 5.67% | – | 1.03 µM [rising, full curve]
9 | Cc1c(O)ccc2c(-c3ccccc3)cc(=O)oc12 | 14% | – | 5.8 µM [rising, partial curve, poor fit]
10 | O=C(NCc1ccco1)c1ccc(S(=O)(=O)N2CCCCCC2)cc1 | -15.4% | – | 0.0291 µM [falling, full curve, poor fit]
11 | CCC(C)(C)NC(=O)C(c1ccc(OC)cc1)N(C(=O)CCC(=O)Nc1cc(C)on1)c1ccc(OC)cc1OC (configuration not stated) | 23.3% | – | 1.16 µM [falling, single point]
12 | Cc1nn2c(N3CCCC3)cc(C(C)C)nc2c1-c1ccccc1 | 4.16% | – | 0.651 µM [rising, single point]
13 | O=C(O)Cc1ccc(NS(=O)(=O)c2ccccc2Cl)cc1 | 21.5% | – | –
14 | O=[N+]([O-])c1cccc(CN2CCN(S(=O)(=O)Cc3ccccc3)CC2)c1 | -18.9% | – | 0.58 µM [falling, single point]
15 | CCN(CC)S(=O)(=O)c1cccc(NC(=O)c2cccc(S(=O)(=O)N3CCCC3)c2)c1 | 7.07% | – | 0.0116 µM [falling, full curve, poor fit]
16 | NC(=O)c1ccc[n+](Cc2cccc3ccccc23)c1 | 15.8% | 0.146 µM [falling, full curve, poor fit] | –
17 | CC(C)Cn1c(-c2cccs2)nc2ccccc21 | 12.6% | – | 0.146 µM [rising, full curve]
18 | Clc1ccc(Nc2nc3cccnc3s2)cc1 | 46% | 2.06 µM [falling, single point] | –
19 | Cc1ccc(C2c3c(oc4ccccc4c3=O)C(=O)N2CCCN2CCOCC2)o1 (configuration not stated) | 10.8% | – | 18.4 µM [falling, partial curve]
20 | O=[N+]([O-])c1ccc(Cl)cc1Sc1ccccn1 | – | – | 29.1 µM [falling, single point]
21 | CC12CCC(C(=O)N3CCOCC3)([C@H](Br)C1=O)C2(C)C (some centres not stated) | -37.3% | 25.9 µM [falling, partial curve, poor fit] | 7.31 µM [falling, partial curve]

Row | SMILES | cell number change | AC50 [1] | AC50 [2]
22 | CCOc1ccc(C(=O)COC(=O)c2c(-c3ccccc3)noc2C)cc1 | – | – | 6.51 µM [rising, single point]
23 | Cc1ccc(CNn2cnnc2SCC(=O)NC(C)(C)C)cc1 | 17.1% | – | 4.61 µM [falling, single point]
24 | COc1cc(NC(=O)C(C)Oc2ccccc2)c(OC)cc1NC(=O)c1ccccc1 (configuration not stated) | -39.4% | 20.6 µM [falling, single point] | 23.1 µM [falling, single point]
25 | CCOC(=O)c1c(C)c(C(=O)NCc2ccccn2)c(C)n1CC | – | 5.8 µM [rising, single point] | 4.11 µM [rising, partial curve, poor fit]
26 | CC(C)OCCCNc1nc2c(c(=O)n(Cc3ccccc3F)c(=O)n2C)n1C | 40.2% | 1.3 µM [rising, full curve] | 18.4 µM [rising, partial curve]
27 | O=C(c1c[nH]c2ccccc12)N1CCN(c2ccccc2)CC1 | 21.6% | – | 5.8 µM [rising, full curve, poor fit]
28 | O=C(NCc1cccs1)C1CCCN1S(=O)(=O)c1ccccc1F (configuration not stated) | 1.89% | – | –
29 | O=C(c1ccccc1)N1CCN(c2ccc(Cl)cc2)CC1 | -33.8% | 16.4 µM [falling, partial curve, poor fit] | 25.9 µM [falling, single point]
30 | Cc1ccc(N2CC(C(=O)Nc3nnc(SCCN4CCOCC4)s3)CC2=O)cc1 (configuration not stated) | 35.3% | – | –
31 | CC1=NN(c2nc(-c3ccc(C)cc3)cs2)C(=O)C1N=Nc1ccccc1O (configuration not stated) | 21.8% | – | –
32 | COc1ccccc1-c1nnc(SCC(=O)O)n1-c1ccccc1 | -32.3% | 29.1 µM [falling, single point] | 20.6 µM [falling, single point]
33 | COc1ccc(C(CC(=O)Nc2cc(C)ccn2)N2Cc3ccccc3C2=O)cc1 (configuration not stated) | 39% | 1.46 µM [rising, partial curve] | 29.1 µM [rising, single point]
34 | O=C(OCCN1CCOCC1)c1ccc2c(c1)OCCO2 | 0.86% | – | 0.651 µM [falling, full curve]
35 | COc1cc(/C=N/NC(=O)c2cc3ccccc3cc2O)ccc1OCCN1CCCCC1 | 11% | – | –
36 | CCc1ccc(NC(=O)c2cc(C(C)C)on2)cc1 | -6.98% | – | –
37 | COc1ccc(-n2c(-c3ccc(Br)cc3)nc(=S)c3c2CCCC3)cc1 | 11.5% | – | 0.058 µM [rising, full curve, poor fit]
38 | CCOc1nnc(C)c2c(C)n(-c3cccc(OC)c3)nc12 | – | – | 0.731 µM [rising, partial curve, poor fit]
39 | COc1ccc(/C(C)=N/NC(=O)c2ccc(N(C)C)cc2)cc1 | 31.1% | 0.291 µM [rising, full curve, poor fit] | 20.6 µM [rising, single point]
40 | CC(c1ccccc1)C(Cc1nc2ccccc2[nH]1)c1nc2ccccc2[nH]1 (configuration not stated) | -31.3% | 6.51 µM [falling, partial curve] | 16.4 µM [falling, single point]
41 | CCCNC(=O)NC(C(=O)OC)C12CC3CC(CC(C3)C1)C2 (configuration not stated) | 14% | – | 18.4 µM [falling, partial curve]
42 | COc1ccc2nc(NC(=O)c3cccc(OCc4c(C)noc4C)c3)sc2c1 | -12.4% | – | 0.00517 µM [rising, full curve, poor fit]

Of the compounds above, 18 have sulfur:
Row | SMILES | cell number change | AC50 [1] | AC50 [2]
1 | COc1ccccc1C1=NNC(=NCc2ccccc2)SC1 | -42.2% | 0.00461 µM [falling, full curve] | –
2 | CCOC(=O)C1=C(C)NC(=O)NC1c1cc(C)sc1C (configuration not stated) | 118% | 18.4 µM [rising, single point] | 29.1 µM [rising, single point]
3 | CCOc1ccc(S(=O)(=O)N2CCC(C(=O)NCC3CCCO3)CC2)cc1C (configuration not stated) | -4.62% | – | –
4 | Cc1cc(C)c(C#N)c(SCc2ccc(C(=O)O)cc2)n1 | -17.5% | – | 6.51 µM [rising, single point]
10 | O=C(NCc1ccco1)c1ccc(S(=O)(=O)N2CCCCCC2)cc1 | -15.4% | – | 0.0291 µM [falling, full curve, poor fit]
13 | O=C(O)Cc1ccc(NS(=O)(=O)c2ccccc2Cl)cc1 | 21.5% | – | –
14 | O=[N+]([O-])c1cccc(CN2CCN(S(=O)(=O)Cc3ccccc3)CC2)c1 | -18.9% | – | 0.58 µM [falling, single point]
15 | CCN(CC)S(=O)(=O)c1cccc(NC(=O)c2cccc(S(=O)(=O)N3CCCC3)c2)c1 | 7.07% | – | 0.0116 µM [falling, full curve, poor fit]
17 | CC(C)Cn1c(-c2cccs2)nc2ccccc21 | 12.6% | – | 0.146 µM [rising, full curve]
18 | Clc1ccc(Nc2nc3cccnc3s2)cc1 | 46% | 2.06 µM [falling, single point] | –
20 | O=[N+]([O-])c1ccc(Cl)cc1Sc1ccccn1 | – | – | 29.1 µM [falling, single point]
23 | Cc1ccc(CNn2cnnc2SCC(=O)NC(C)(C)C)cc1 | 17.1% | – | 4.61 µM [falling, single point]
28 | O=C(NCc1cccs1)C1CCCN1S(=O)(=O)c1ccccc1F (configuration not stated) | 1.89% | – | –
30 | Cc1ccc(N2CC(C(=O)Nc3nnc(SCCN4CCOCC4)s3)CC2=O)cc1 (configuration not stated) | 35.3% | – | –
31 | CC1=NN(c2nc(-c3ccc(C)cc3)cs2)C(=O)C1N=Nc1ccccc1O (configuration not stated) | 21.8% | – | –
32 | COc1ccccc1-c1nnc(SCC(=O)O)n1-c1ccccc1 | -32.3% | 29.1 µM [falling, single point] | 20.6 µM [falling, single point]
37 | COc1ccc(-n2c(-c3ccc(Br)cc3)nc(=S)c3c2CCCC3)cc1 | 11.5% | – | 0.058 µM [rising, full curve, poor fit]
42 | COc1ccc2nc(NC(=O)c3cccc(OCc4c(C)noc4C)c3)sc2c1 | -12.4% | – | 0.00517 µM [rising, full curve, poor fit]

Further structures.

Row | SMILES | cell number change | AC50 [1] | AC50 [2]
43 | N#Cc1c(-c2ccco2)nc(SCC(=O)Nc2ccc(S(N)(=O)=O)cc2)[nH]c1=O | -37.9% | 9.2 µM [falling, partial curve] | 8.2 µM [falling, partial curve]
44 | O=C(/C=C/c1ccc(S(=O)(=O)N2CCOCC2)cc1)NCc1ccccc1F | 2.14% | 0.731 µM [rising, full curve, poor fit] | 0.58 µM [rising, full curve]
45 | CC(C)(C)CC(=O)NC(=S)NCc1ccco1 | 1.19% | 1.16 µM [rising, single point] | 1.16 µM [rising, single point]
46 | COc1ccc(-c2nc(NC(=O)CSc3nnc(C)s3)ns2)cc1 | – | – | 29.1 µM [rising, partial curve]
47 | CCNC(=S)N1CCN(CCN2C(=O)c3cccc4cccc(c34)C2=O)CC1 | -3.14% | – | 32.6 µM [falling, single point]
48 | CC1(C)OC(=O)N(NCc2ccccc2)C1(C)O (configuration not stated) | 15% | – | –
49 | CCN1/C(=C/c2sc(-c3ccccc3C)c[n+]2C)Sc2ccccc21 | -77.5% | 1.64 µM [falling, full curve] | 1.3 µM [falling, full curve]
50 | CCc1c(C)sc(NC(=O)CC#N)c1C#N | 2.16% | – | 29.1 µM [rising, single point]
51 | CCOc1cc(NC(=O)c2cnccn2)c(OCC)cc1NC(=O)c1cccc(F)c1 | -14.6% | – | 32.6 µM [falling, single point]
52 | CCN(CC)CCNc1nc2c(c(=O)[nH]c(=O)n2C)n1CC(O)COc1ccc(Cl)cc1Cl (configuration not stated) | 30.5% | 29.1 µM [rising, single point] | –
53 | C/C=C/Cn1cccc(C(=O)Nc2ccc(OC)cc2)c1=O | 70.4% | 0.82 µM [rising, full curve, poor fit] | 6.51 µM [rising, single point]
54 | Clc1ccccc1CSc1cc2c(nn1)-c1ccccc1CC2 | 22.3% | – | –
55 | COc1ccccc1NC(=O)C(C)Sc1nc(-c2ccccc2)cn1N (configuration not stated) | -5.32% | – | 29.1 µM [rising, single point]
56 | Cc1cnc(C(=O)Nc2ccc(OC(F)(F)F)cc2)cn1 | -26.8% | – | 6.51 µM [rising, single point]
57 | COc1ccc(N2CCN(C(=O)c3cccs3)CC2)cc1 | -16.6% | – | 6.51 µM [rising, single point]
58 | CCc1ccc(-c2nc(CS(=O)CC(=O)NC3CC3)c(C)o2)cc1 (configuration not stated) | 32.8% | 5.8 µM [rising, partial curve] | –
59 | CCCCOc1cccc(C(=O)Nc2ccc(N3CCN(CC)CC3)cc2)c1 | 92.1% | 23.1 µM [rising, single point] | 16.4 µM [rising, partial curve]
60 | CC(=O)N1CCN(c2ccccc2NC(=O)c2cccs2)CC1 | 0.64% | – | –
61 | O=[N+]([O-])c1ccc(-n2nnnc2-c2ccccc2)c([N+](=O)[O-])c1 | -57.5% | 23.1 µM [falling, partial curve] | 0.651 µM [rising, partial curve, poor fit]

Looked up by structure from the entries so far, two records:
Row | SMILES | cell number change | AC50 [1] | AC50 [2]
59 | CCCCOc1cccc(C(=O)Nc2ccc(N3CCN(CC)CC3)cc2)c1 | 92.1% | 23.1 µM [rising, single point] | 16.4 µM [rising, partial curve]
18 | Clc1ccc(Nc2nc3cccnc3s2)cc1 | 46% | 2.06 µM [falling, single point] | –
